Source: publication PMC4352044
Results are given in words; binding and its absence hold for the method and conditions named. Binding seen in cells or lysates may run through a third protein. Some results given as binding are weak or reduced against the parent protein; the word gives no strength.

Key:
[1] = target: T1, scc3-K372A-6HA (budding yeast) (UniProt P40541); assay: co-IP; anti-HA immunoprecipitation of Scc3-6HA (wild type or mutant) from yeast lysates, mid-log cells; IPH150 or IPH50 buffer (50 mM Tris pH 8.0, 150/50 mM NaCl, 5 mM EDTA, 0.5% NP-40, 1 mM DTT), 4°C, protein A/G agarose, Western blot of partners; also in wpl1Δ strains and after depletion of Pds5-3V5-AID with 1 mM IAA
T1 sequence: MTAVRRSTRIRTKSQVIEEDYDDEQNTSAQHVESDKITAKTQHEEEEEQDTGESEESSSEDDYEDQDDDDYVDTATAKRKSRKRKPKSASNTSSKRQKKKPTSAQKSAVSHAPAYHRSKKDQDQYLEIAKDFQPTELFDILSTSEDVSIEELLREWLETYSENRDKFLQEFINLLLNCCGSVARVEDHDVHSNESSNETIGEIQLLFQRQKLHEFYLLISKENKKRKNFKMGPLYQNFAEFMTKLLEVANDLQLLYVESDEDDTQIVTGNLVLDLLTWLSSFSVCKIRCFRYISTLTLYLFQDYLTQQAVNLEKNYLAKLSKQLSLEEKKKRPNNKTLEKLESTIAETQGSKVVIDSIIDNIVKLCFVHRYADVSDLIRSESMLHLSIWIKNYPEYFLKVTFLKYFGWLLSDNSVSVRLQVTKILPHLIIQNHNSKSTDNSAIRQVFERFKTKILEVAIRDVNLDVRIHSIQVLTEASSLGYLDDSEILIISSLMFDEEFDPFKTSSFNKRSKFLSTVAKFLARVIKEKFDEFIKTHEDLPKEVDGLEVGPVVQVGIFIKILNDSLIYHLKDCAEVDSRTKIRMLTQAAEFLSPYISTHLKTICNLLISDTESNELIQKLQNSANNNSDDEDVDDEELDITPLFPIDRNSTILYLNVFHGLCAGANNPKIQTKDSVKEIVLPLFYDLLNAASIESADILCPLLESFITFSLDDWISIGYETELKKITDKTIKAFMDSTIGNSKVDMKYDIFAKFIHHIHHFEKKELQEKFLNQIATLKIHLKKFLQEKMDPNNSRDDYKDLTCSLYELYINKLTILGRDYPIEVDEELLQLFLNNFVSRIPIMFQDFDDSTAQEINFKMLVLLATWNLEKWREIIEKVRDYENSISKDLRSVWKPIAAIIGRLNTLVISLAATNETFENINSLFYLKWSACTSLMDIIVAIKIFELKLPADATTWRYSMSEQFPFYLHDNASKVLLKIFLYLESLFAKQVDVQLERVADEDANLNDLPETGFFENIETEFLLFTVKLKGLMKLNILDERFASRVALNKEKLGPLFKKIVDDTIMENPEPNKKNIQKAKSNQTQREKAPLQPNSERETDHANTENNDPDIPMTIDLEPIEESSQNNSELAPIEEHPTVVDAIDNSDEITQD

[2] = target: T2, scc3-Y371A-6HA (budding yeast) (UniProt P40541); assay: as above
T2 sequence: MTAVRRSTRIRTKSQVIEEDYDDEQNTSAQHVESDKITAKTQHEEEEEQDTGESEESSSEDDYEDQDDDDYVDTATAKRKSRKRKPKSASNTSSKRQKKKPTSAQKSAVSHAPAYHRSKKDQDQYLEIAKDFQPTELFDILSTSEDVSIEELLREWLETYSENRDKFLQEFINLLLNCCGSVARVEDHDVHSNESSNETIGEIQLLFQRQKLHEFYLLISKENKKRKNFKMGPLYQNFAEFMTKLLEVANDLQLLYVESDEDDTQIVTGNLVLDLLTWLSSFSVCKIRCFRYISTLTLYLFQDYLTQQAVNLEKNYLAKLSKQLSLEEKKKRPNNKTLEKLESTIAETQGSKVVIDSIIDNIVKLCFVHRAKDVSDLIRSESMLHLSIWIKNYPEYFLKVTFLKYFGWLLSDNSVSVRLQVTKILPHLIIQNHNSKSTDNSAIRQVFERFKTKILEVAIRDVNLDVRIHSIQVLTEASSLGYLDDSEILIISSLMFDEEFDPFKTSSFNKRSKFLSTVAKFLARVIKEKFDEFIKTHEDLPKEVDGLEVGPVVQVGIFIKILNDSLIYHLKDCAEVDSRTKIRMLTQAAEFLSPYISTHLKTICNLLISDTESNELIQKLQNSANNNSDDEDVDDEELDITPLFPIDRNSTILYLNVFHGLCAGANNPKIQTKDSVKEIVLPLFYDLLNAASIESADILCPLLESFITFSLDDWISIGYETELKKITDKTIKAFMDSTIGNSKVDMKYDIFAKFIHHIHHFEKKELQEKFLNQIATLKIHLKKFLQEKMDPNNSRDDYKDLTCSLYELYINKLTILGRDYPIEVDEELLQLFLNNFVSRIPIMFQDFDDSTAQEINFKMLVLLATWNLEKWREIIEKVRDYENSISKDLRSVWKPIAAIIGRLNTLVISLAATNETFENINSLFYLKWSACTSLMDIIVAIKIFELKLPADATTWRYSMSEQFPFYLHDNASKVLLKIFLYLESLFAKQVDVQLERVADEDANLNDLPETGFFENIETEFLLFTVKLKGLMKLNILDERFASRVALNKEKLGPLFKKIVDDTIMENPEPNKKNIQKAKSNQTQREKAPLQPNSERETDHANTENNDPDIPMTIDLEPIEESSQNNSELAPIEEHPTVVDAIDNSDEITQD

B1: Mcd1 (protein, UniProt Q12158 1-566)
chain: MVTENPQRLTVLRLATNKGPLAQIWLASNMSNIPRGSVIQTHIAESAKEIAKASGCDDESGDNEYITLRTSGELLQGIVRVYSKQATFLLTDIKDTLTKISMLFKTSQKMTSTVNRLNTVTRVHQLMLEDAVTEREVLVTPGLEFLDDTTIPVGLMAQENSMERKVQGAAPWDTSLEVGRRFSPDEDFEHNNLSSMNLDFDIEEGPITSKSWEEGTRQSSRNFDTHENYIQDDDFPLDDAGTIGWDLGITEKNDQNNDDDDNSVEQGRRLGESIMSEEPTDFGFDLDIEKEAPAGNIDTITDAMTESQPKQTGTRRNSKLLNTKSIQIDEETENSESIASSNTYKEERSNNLLTPQPTNFTTKRLWSEITESMSYLPDPILKNFLSYESLKKRKIHNGREGSIEEPELNVSLNLTDDVISNAGTNDNSFNELTDNMSDFVPIDAGLNEAPFPEENIIDAKTRNEQTTIQTEKVRPTPGEVASKAIVQMAKILRKELSEEKEVIFTDVLKSQANTEPENITKREASRGFFDILSLATEGCIGLSQTEAFGNIKIDAKPALFERFINA
For B1, the binding [1] was “binds” and the binding [2] was “binds”.
